Measurements taken from article PMC12572372.
No constants are given. Whether binding was seen depends on the method and setting. Binding seen in cells or lysates may run through a third protein. Some entries that bind do so weakly or less than the wild type. Tags and fused reporters may be left off the sequences shown.

Chains of the proteins cited; added tags and fusions are not shown.
UniProt P19838: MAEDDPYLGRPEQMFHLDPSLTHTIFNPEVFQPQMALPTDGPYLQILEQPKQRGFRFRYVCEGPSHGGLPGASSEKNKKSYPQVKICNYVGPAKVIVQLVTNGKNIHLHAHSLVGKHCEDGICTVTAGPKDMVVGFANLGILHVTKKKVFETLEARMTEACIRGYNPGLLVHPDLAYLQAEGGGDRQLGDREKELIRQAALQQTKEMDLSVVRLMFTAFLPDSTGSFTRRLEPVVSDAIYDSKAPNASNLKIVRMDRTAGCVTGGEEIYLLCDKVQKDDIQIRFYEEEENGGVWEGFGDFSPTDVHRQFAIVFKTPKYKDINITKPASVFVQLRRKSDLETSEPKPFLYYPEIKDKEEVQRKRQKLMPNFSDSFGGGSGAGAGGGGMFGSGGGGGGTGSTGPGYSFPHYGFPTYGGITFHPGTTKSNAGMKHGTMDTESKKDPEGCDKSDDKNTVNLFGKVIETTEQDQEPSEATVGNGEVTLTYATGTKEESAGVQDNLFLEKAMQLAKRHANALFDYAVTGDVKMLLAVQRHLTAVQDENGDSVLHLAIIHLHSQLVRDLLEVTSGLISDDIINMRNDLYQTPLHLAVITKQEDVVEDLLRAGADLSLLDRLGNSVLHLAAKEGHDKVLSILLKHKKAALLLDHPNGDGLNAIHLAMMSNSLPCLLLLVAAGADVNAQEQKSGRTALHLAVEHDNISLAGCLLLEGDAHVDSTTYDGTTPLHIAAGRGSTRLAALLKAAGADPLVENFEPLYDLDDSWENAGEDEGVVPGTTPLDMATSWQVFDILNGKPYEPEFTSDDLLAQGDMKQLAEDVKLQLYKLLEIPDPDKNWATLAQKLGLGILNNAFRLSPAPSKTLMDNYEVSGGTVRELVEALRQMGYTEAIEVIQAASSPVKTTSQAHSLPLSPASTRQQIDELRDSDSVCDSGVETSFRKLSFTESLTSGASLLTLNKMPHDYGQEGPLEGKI
UniProt O14818: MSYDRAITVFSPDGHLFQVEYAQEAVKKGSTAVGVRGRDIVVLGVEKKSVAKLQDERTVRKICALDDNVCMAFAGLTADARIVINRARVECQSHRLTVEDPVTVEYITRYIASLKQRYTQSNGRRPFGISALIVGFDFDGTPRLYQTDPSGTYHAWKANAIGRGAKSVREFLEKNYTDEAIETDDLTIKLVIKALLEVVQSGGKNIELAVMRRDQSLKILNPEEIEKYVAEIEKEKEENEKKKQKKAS

How the values were obtained:
[1] = target: T1, FLAG-tagged human LZTR1 (Leucine zipper-like transcription regulator 1) (human) (UniProt Q8N653); assay: co-IP; Supplementary Fig. S14c, d; set-up not told in the text shown; the methods describe only anti-NF-κB1 and FLAG immunoprecipitations from HaCaT lysates (NP-40 lysis buffer)
T1 sequence: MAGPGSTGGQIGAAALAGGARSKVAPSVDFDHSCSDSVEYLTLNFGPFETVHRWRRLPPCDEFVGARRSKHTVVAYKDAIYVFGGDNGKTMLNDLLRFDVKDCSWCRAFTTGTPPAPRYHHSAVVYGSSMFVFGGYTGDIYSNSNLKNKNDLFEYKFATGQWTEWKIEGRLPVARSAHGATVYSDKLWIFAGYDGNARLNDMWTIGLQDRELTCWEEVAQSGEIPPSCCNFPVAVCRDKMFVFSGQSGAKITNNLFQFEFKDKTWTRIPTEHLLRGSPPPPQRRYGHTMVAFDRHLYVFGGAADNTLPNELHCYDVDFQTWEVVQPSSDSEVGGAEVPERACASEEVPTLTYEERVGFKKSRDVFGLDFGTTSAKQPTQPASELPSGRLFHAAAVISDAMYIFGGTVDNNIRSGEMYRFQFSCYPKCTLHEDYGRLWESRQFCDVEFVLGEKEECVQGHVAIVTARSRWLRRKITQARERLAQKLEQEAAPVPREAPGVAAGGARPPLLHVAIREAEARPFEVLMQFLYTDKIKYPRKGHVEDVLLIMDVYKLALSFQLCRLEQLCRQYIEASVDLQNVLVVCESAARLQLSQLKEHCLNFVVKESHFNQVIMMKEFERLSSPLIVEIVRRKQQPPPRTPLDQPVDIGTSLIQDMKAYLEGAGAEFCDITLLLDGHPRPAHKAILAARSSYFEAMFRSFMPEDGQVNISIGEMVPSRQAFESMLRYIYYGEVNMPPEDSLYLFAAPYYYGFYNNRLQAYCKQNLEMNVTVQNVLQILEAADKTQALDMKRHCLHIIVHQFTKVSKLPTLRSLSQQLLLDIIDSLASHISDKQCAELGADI

[2] = target: T1, FLAG-tagged human LZTR1 (Leucine zipper-like transcription regulator 1) (human); assay: co-IP; FLAG immunoprecipitation (Flag-tag Protein IP Assay Kit with magnetic beads) from HaCaT cells reconstituted with empty vector or FLAG-tagged human LZTR1; immunoblot for endogenous PSMA6, PSMA7 and RPS3

Substance	binding [1]	binding [2]
NF-κB1 p105 (precursor form) (from UniProt P19838 1-968)	no binding	–
PSMA7 (proteasome 20S subunit alpha) (from UniProt O14818 1-248)	–	binds
